The values that follow come from article PMC2739719.

By UniProt entry, the sequences of proteins in these tests, tags left out. Residues count along the entry.
UniProt P02545, residues 1-646: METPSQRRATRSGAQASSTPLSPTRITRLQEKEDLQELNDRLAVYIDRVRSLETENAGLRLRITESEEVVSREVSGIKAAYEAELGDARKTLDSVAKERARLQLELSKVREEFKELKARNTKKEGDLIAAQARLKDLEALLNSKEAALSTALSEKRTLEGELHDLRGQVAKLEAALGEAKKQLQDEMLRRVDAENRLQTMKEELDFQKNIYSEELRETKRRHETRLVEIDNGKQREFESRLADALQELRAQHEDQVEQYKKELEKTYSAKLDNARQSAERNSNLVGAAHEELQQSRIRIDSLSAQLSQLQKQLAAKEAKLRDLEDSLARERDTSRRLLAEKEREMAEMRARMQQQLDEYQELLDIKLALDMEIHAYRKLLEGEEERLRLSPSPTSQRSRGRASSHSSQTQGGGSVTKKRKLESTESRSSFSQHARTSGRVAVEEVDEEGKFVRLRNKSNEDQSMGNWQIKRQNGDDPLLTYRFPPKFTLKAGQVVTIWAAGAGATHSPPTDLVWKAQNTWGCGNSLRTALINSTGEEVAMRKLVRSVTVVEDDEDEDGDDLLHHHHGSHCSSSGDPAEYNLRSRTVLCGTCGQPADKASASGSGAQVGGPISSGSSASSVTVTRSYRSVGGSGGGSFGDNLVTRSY

No constants are given. Whether binding was seen depends on the method and setting. In cells and extracts the contact can be indirect. These calls come from enrichment with a bait or labelling near it, and not all partners need be listed. Tags and fused reporters may be left off the sequences shown.

Assay [1] deals with T1, recombinant purified His-tagged human BAF (H6BAF) dimers (human) (UniProt O75531).
T1 sequence: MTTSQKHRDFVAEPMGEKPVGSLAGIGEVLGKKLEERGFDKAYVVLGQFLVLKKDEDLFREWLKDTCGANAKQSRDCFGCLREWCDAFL
The assay can be described thus: affinity purification with mass spectrometry; 30 µg H6BAF dimers on Ni-NTA beads, 500 µg pre-cleared HeLa nuclear lysate (benzonase-treated), 3 hrs 4°C; eluted with 0.3 M then 1 M NaCl; LC-MS/MS of eluates; Ni beads alone as control; only the target purified.

The target in assay [2] is T1, recombinant purified His-tagged human BAF (H6BAF) dimers (human). The assay can be described thus: affinity purification with mass spectrometry; scaled up: 100 µg Ni-BAF beads, 5 mg HeLa nuclear lysate proteins; 0.3 M and 1 M NaCl eluates of BAF and control beads labelled with iTRAQ 4-plex reagents; enrichment against bead-only controls; only the target purified.

As for Lamin A/C (from UniProt P02545 1-646), the binding result in assay [1] and in assay [2] was “binds” each time.

B1: NonO protein (protein, UniProt Q15233 1-471)
chain: MQSNKTFNLEKQNHTPRKHHQHHHQQQHHQQQQQQPPPPPIPANGQQASSQNEGLTIDLKNFRKPGEKTFTQRSRLFVGNLPPDITEEEMRKLFEKYGKAGEVFIHKDKGFGFIRLETRTLAEIAKVELDNMPLRGKQLRVRFACHSASLTVRNLPQYVSNELLEEAFSVFGQVERAVVIVDDRGRPSGKGIVEFSGKPAARKALDRCSEGSFLLTTFPRPVTVEPMDQLDDEEGLPEKLVIKNQQFHKEREQPPRFAQPGSFEYEYAMRWKALIEMEKQQQDQVDRNIKEAREKLEMEMEAARHEHQVMLMRQDLMRRQEELRRMEELHNQEVQKRKQLELRQEEERRRREEEMRRQQEEMMRRQQEGFKGTFPDAREQEIRMGQMAMGGAMGINNRGAMPPAPVPAGTPAPPGPATMMPDGTLGLTPPTTERFGQAATMEGIGAIGGTPPAFNRAAPGAEFAPNKRRRY
For B1, the binding result in assay [2] is on record as “binds”.

B2: Heterogeneous nuclear ribonucleoprotein L (hnRNP L) (protein, UniProt P14866 1-589)
chain: MSRRLLPRAEKRRRRLEQRQQPDEQRRRSGAMVKMAAAGGGGGGGRYYGGGSEGGRAPKRLKTDNAGDQHGGGGGGGGGAGAAGGGGGGENYDDPHKTPASPVVHIRGLIDGVVEADLVEALQEFGPISYVVVMPKKRQALVEFEDVLGACNAVNYAADNQIYIAGHPAFVNYSTSQKISRPGDSDDSRSVNSVLLFTILNPIYSITTDVLYTICNPCGPVQRIVIFRKNGVQAMVEFDSVQSAQRAKASLNGADIYSGCCTLKIEYAKPTRLNVFKNDQDTWDYTNPNLSGQGDPGSNPNKRQRQPPLLGDHPAEYGGPHGGYHSHYHDEGYGPPPPHYEGRRMGPPVGGHRRGPSRYGPQYGHPPPPPPPPEYGPHADSPVLMVYGLDQSKMNCDRVFNVFCLYGNVEKVKFMKSKPGAAMVEMADGYAVDRAITHLNNNFMFGQKLNVCVSKQPAIMPGQSYGLEDGSCSYKDFSESRNNRFSTPEQAAKNRIQHPSNVLHFFNAPLEVTEENFFEICDELGVKRPSSVKVFSGKSERSSSGLLEWESKSDALETLGFLNHYQMKNPNGPYPYTLKLCFSTAQHAS
On to B2, for which, in assay [2], the binding result is “binds”.
